## Library screen at single concentrations

A: 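Phenotypic screen: M. tuberculosis growth, cholesterol and DPPC medium, 4 days; the read-out is not stated. Tested at 50 µM. Higher reads as more growth inhibition (inferred: compounds with an IC50 in retests scored well above the rest). Of about 69,000 compounds tested this way, about 370 (0.54%) reached 50% or more in at least one test.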
B: 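Growth of Mycobacterium tuberculosis over 3 days (7H9 medium with glucose and tyloxapol); the read-out is not stated. Compounds at 50 µM. Higher reads as more growth inhibition (inferred: compounds with an IC50 in retests scored well above the rest). About 69,000 compounds were tested under these conditions; 1.1% (about 760) showed 50% or more at least once.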

Results are given as percent effect. The record does not define 0% and 100%; most values in the screen are far below 50% and negative numbers occur (in some assays of this library far below -100). Compounds were drawn at random from those tested, without regard to their results. Two or more numbers in one place are separate tests of the same structure; such repeats can differ widely.

compound,A,B
O=C(NCc1cccnc1N1CCc2ccccc2C1)c1cc(=O)[nH][nH]1,-5.544%,25.03%
[H][C@@]12CCC(=O)N(CC(C)C)[C@]1([H])CCN(C(=O)Cn1ccc(=O)cc1)C2,-17.79%,11.63%
O=C(c1cc(-c2ccco2)nc2c(Cl)cccc12)N1CCS(=O)(=O)CC1,-20.17%,-26.58%
Cc1cc2nc(C(C)C)cc(NCCNc3ncccc3C)n2n1,-15.39%,-14.11%
COc1ccc(CNC(=O)Cn2ccc3sccc3c2=O)cc1,3.771%,-11.13%
N#Cc1ccc(CS(=O)(=O)NC(=O)c2ccc3c(c2)COC3)cc1,-5.264%,-5.26% and -5.477%
COc1cc(C(=O)Nc2cn[nH]c2)ccc1C,-1.873%,13.77%
Cc1c(F)cccc1CN1CCn2nc(CNC(=O)N(C)C)cc2C1,-10.11%,-8.182%
CC(Cn1cccn1)NC(=O)N1CCCN(Cc2cccs2)CC1 (centres undefined),-26.48%,3.245%
CCc1nc(C2CCCN2C(=O)CCc2nc(C(C)(C)C)no2)no1 (centres undefined),-8.888%,17.47%
O=C(O)C(F)(F)F.O=C(O)C(F)(F)F.[H][C@]12C[C@@H](CN(C)C)N(C(C)=O)[C@@]1([H])CCN(C(=O)c1cncc(C)c1)C2,-18%,-2.204%
Fc1ccc(N2CCOC(Cc3cccnc3)C2)cc1 (centres undefined),3.632%,4.098%
Cc1nnc(NCC(c2ccco2)N2CCCC2)c(C#N)c1C (centres undefined),-26.2%,-18.34%
Cn1ncnc1NS(=O)(=O)c1ccccc1,12.97%,23.58%
CC(C)N(C)C(=O)CSCc1ccc(S(=O)(=O)N(C)C)o1,20.4%,22.49%
[H][C@@]12CS(=O)(=O)C[C@]1([H])N(C(=O)c1ccc(C)cc1OC)CCN2CCOC,-14.47%,7.914%
O=C(Cn1cnnn1)N1CCCCC1Cn1cccn1 (centres undefined),-13.26%,-25.11%
Cc1cccc(OCCC(=O)NCC(C)(C)C(N)=O)c1,-2.591%,-26.6%
N#CCc1cccc(C(=O)N2CCN(CC(O)c3ccccc3)CC2)c1 (centres undefined),1.696%,16.59%
CCn1ncc2[nH]c(-c3ccc(OC)c(COC)c3)nc21,9.818%,24.71%
COCc1nc(C2CC2)nn1-c1cc(Cl)ccc1OC,-12.48%,7.778% and -27.87%
Cn1cc(NC(=O)C2CC(c3ccccc3)C2)ccc1=O (centres undefined),-16.73%,-16.9%
Cc1ccccc1CC1(CO)CCCN(c2ncncc2C(C)C)C1 (centres undefined),0.04453%,-12.38% and 17.84%
Nc1nc(C2CCN(C(=O)c3cnco3)CC2)cs1,38.16%,-6.689%
Cn1ccc(C(=O)NCc2ccc(N3CCCC3)nc2)cc1=O,-8.658%,-10.83%
O=C(NC1CCCC1)NC1CCC(C(=O)N2CCSCC2)CC1 (centres undefined),-6.199%,-4.402%
COCc1nc(N2CC[C@H](N(C)C)C2)c2cnn(C)c2n1,6.149%,29.34%
CC1COCCN1C(=O)c1ccc(=O)n(Cc2ccccc2)n1 (centres undefined),-13.75%,-15.82%
Cn1c(=O)n(C)c2cc(C3SCC(=O)Nc4ccsc43)ccc21 (centres undefined),-6.371%,7.93%
Cc1ccc(C(=O)NCC(C)Cn2cccn2)c(=O)[nH]1 (centres undefined),-12.69%,-4.877%
[H][C@]12CC[C@@]3(N=C(c4ccccc4)NC3=O)[C@@]1([H])CN(Cc1nccs1)C2,-22.07%,-24.53% and -6.745%
[H][C@]12CC[C@]([H])(CN(S(=O)(=O)N(C)C)C1)N(C(=O)c1sc(CC)nc1C)C2,-33.18%,-19.8%
CN(C)CC1CSCCCN1C(=O)Nc1ccc(C(C)(C)C)cc1 (centres undefined),8%,-4.898%
CCN(Cc1ccccc1)C(=O)CCN1CC(O)C1,26.37%,18.69% and 50.07%
Cc1cc(C)c(C(=O)N2CCc3c(ncn3CCc3ccccc3)C2)[nH]1,2.872% and 8.232%,33.5%
COC(=O)N1CC(C)=C(C)CN1C(=O)Nc1cccc(Cl)c1,2.131%,5.7%
CC(Cn1cccn1)NCc1csc(Cc2ccccc2)n1 (centres undefined),5.146%,32.45%
[H][C@@]12CCCN1CCCN(c1nc(CCC)nc3c1cnn3C)C2,15.28%,-11.22%
CCN1CCC(CC(=O)NCCc2nc(O)cc(O)n2)CC1,-19.48%,-11.77%
O=S(=O)(c1cncc(F)c1)N1CCC2(CCCCC2)C1,1.089%,9.786% and 0.6791%
O=C(O)C(F)(F)F.[H][C@@]12CCN(Cc3ccc4c(c3)OCO4)C[C@]1([H])[C@H](C(=O)N(C)C)CCO2,-8.699%,-1.297%
O=C(O)C(F)(F)F.[H][C@@]12CCN(CC3CCCCC3)C[C@]1(C(=O)N1CCOCC1)CCO2,-19.34%,-8.58%
COc1cccc2c(=O)n(CCN3CCNCC3)cnc12,-7.332%,23.78%
O=C(c1ccoc1)N1CCc2ncc(Cn3cccn3)n2CC1,7.959%,1.785%
[H][C@@]12CS(=O)(=O)C[C@]1([H])N(Cc1cnc(C)nc1)CCN2C(=O)CC,-12.17%,-48.21%
Cc1cc(-n2nnc(C(=O)O)c2-c2ccncc2)ccc1F,-11.93%,-42.32%
CN(c1nccc(-c2cnc3sc(Cl)cn3c2=O)n1)C1CCCCC1,13.06%,25.65%
O=C(Nc1cnn(Cc2ccc(F)cc2Cl)c1)C1CC1,-0.8467%,50.41%
CN1C(=O)C2(CCN(C(=O)c3ccccc3)CC2)c2cc(F)ccc21.Cl,-24.94%,9.086%
Cc1cccc(CN2CCOC3(COCCN(CCN(C)C)C3)C2)n1.O=C(O)C(F)(F)F.O=C(O)C(F)(F)F.O=C(O)C(F)(F)F (centres undefined),-5.132% and -16.41%,-25.62%
Cc1ccc(CC(NC(=O)CCS(C)(=O)=O)c2ccccn2)cc1 (centres undefined),3.39% and 2.261%,5.691%
CN(CCNC(=O)Nc1cnn(C)c1)Cc1ccc(F)cc1,4.413%,-1.892%
COCCN1CCCC(CN(C)c2nc3c(s2)c(C)nn3C)C1 (centres undefined),19.61%,45.64%
CN(C)c1cccc(C2CCCN2c2nc3c(cnn3C)c(=O)[nH]2)c1 (centres undefined),-21.55%,-29.36% and 9.798%
CC(C)CN1CCC2(CCN(Cc3ccsc3)CC2)C1=O,12.5%,25.25%
CN(CC(=O)Nc1ccc(Br)cn1)C(=O)Cc1ccc(O)cc1,9.331%,21.22%
COCC(=O)N1CCN(S(=O)(=O)c2ccccc2)[C@@H](C(=O)OC)C1,12.81%,0.05818% and 7.565%
Cc1cnc(CN2CCOC(CNc3cccnn3)C2)cn1 (centres undefined),3.175%,18.76%
CC(Sc1nnc(C2CC2)n1CC(N)=O)c1ccc(F)c(Cl)c1 (centres undefined),-8.122% and -24.37%,-15.84%
CC(C(=O)Nc1cnn(CC(N)=O)c1)c1ccc(Cl)s1 (centres undefined),10.3%,33.31%
CCCN(CC(F)F)C(=O)CCc1c(C)nc2cc(O)nn2c1C,-8.121%,-3.174%
CCn1nc(C)c(CCNC(=O)c2coc(CN3CCOCC3)c2)c1C,-7.22%,-0.6678%
O=C(NCC1(O)CCOc2ccccc21)Nc1ccccc1 (centres undefined),12.28%,-22.94%
CCN(Cc1nonc1C)C(=O)Cn1nc(C(F)(F)F)cc1C,7.137%,11.96%
CN(C(=O)NCCCN1CCCC1)C1CCN(c2ccccc2)C1=O (centres undefined),-15.09%,-15.1%
C[C@@H]1CN(C(=O)CCN2CCCC2)CC[C@@]1(O)C1CCC1,16.79%,8.331%
COCC(O)CNC(=O)Nc1ccc(Cl)cc1-n1cccc1 (centres undefined),7.531%,1.014%
Cc1ccc(-c2nc(C(=O)N3CCCC(C(N)=O)C3)cs2)c(C)c1 (centres undefined),8.916%,14.63%
CN1CCN(C)C2(CCN(Cc3ccc(C4CCCCO4)o3)CC2)C1 (centres undefined),2.102% and -20.1%,7.228%
Cc1csc(C(Cc2cccs2)NCc2cc3c(cc2C)OCO3)n1 (centres undefined),36.06% and -13.6%,-11.51%
CC(=O)N1CCC[C@H]1C(=O)NCCOc1cccc(Cl)c1,-6.534%,-6.194%

Data taken from ChEMBL document CHEMBL3988442, “University of Dundee, Small-Polar-MMV Screening Library” (2021).